# Assay results published in the supplement of paper PMC4635364.
# Where a name gives a salt, the structure may show the parent alone. This is one part of the list. Single values are uncertain here, since repeats match poorly.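 ReNCell VM, a human fetal ventral-midbrain neural progenitor line, was differentiated without mitogens. Blinded raters scored images stained for doublecortin (early neurons) or tyrosine hydroxylase (dopaminergic neurons) against untreated wells (0 = no change). Scores were averaged across repeats and both raters, and compounds averaging 2 or more were selected as hits for retesting.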
# Tested on: ReNCell VM
# Assay: dopaminergic neuron differentiation score (TH+ cell fraction vs untreated, manual image score) (score (0 to 3)); higher = more TH+ dopaminergic neuron differentiation
# Details: library: Prestwick; 2 uM; 4 weeks; BDNF 10 ng/ml + GDNF 10 ng/ml
row,SMILES,dopaminergic neuron differentiation score
1,CNCCC=C1c2ccccc2C=Cc2ccccc21 [Norcyclobenzaprine],inactive: 0
2,O=C1C(CC[S+]([O-])c2ccccc2)C(=O)N(c2ccccc2)N1c1ccccc1 (configuration not stated) [Sulfinpyrazone],inactive: 0
3,CC(C)(C(=O)O)c1ccc(C(O)CCCN2CCC(C(O)(c3ccccc3)c3ccccc3)CC2)cc1 (configuration not stated) [Fexofenadine HCl],inactive: 0
4,Nc1ccc(S(=O)(=O)c2ccc(N)cc2)cc1 [Dapsone],inactive: 0
5,CN(C)C/C=C(/c1ccc(Br)cc1)c1cccnc1 [Zimelidine dihydrochloride monohydrate],inactive: 0
6,CC1=C(C(=O)O)N2C(=O)[C@@H](NC(=O)[C@H](N)c3ccc(O)cc3)[C@H]2SC1 [Cefadroxil],inactive: 0
7,CCCCCCCCNC(C)C(O)c1ccc(SC(C)C)cc1 (configuration not stated) [Suloctidil],inactive: 0
